System: skin mast cells
Assay: Effect of drug pretreatment on dye extravasation induced by CRH
Type: in vivo, rat
Details: drug 10^-4 M
Protocol: 1. For extravasation experiments, male Sprague/Dawley rats, each weighing approximately 350 g (Taconic Farms, Germantown, N.Y.), were anesthetized with a single intraperitoneal injection of 0.5 ml ketamine and 0.5 ml xylazine (20 mg/ml each) and then injected intravenously with 0.1 ml of 1% Evan's blue 60 min prior to treatment.
3. The pretreatment solution, when appropriate, was drawn first in the syringe followed by CRH from which it was separated by an air bubble. The pretreatment solution was injected first and was allowed to remain in the skin for 1 min; the needle was then changed, the air bubble ejected and CRH was injected and allowed to stay in the skin for 5 min. The animal was then killed by asphyxiation over CO2 vapor and decapitated; the skin was removed, turned over and photographed.

Structure (SMILES): CN(C)CCOC(c1ccccc1)c1ccccc1 [Diphenhydramine, diphenhydramine]
- plasma extravasation by CRH after pretreatment (higher concentrations (>10^-6 M) of CRH): only partially inhibited
- plasma extravasation by CRH after pretreatment (lower concentrations (<10^-8 M) of CRH): suppressed
